Reference: PubChem BioAssay AID1259254 (NCATS, 2017)
Aim: 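Genome-wide screen for genes that prevent DNA re-replication in cancer cells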 (primary screen). System: human HCT116 colorectal cancer cells. Reagent: single siRNA against human genes. Duration: 3 days. Measurement: 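Imaged Hoechst DNA stain sorts each cell into a cycle phase by DNA amount; per plate, G2 fraction set to 0% for non-targeting and 100% for GMNN siRNA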. Direction: G2 robust z-score and G2 cells, % of GMNN control: higher = more G2 cells, more excess DNA replication. Hit rule: 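Active siRNAs have a G2 robust z of 5 or more median absolute deviations over the median, which in these data means about 38% or higher of GMNN control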.
Shown is a random part of about 59,000 reagents tested. About 1,550 of all reagents (2.6%) were called active. 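G2 share is only a proxy for re-replication; each gene was hit by three separate siRNAs, and active genes were retested.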 The numbers tell different reagents against one gene apart. Further read-outs or replicates are left out here. No sequences are given here. Not stated in the record: the amount of reagent.

Knock-down of CFAP97 #1 came out at: G2 robust z-score -0.321; G2 cells, % of GMNN control 0.712; inactive.
Against CFAP97 #2 the deposit lists G2 robust z-score 1.32; G2 cells, % of GMNN control 12.3; inactive.
For CFAP97 #3 the deposit lists G2 robust z-score 3.76; G2 cells, % of GMNN control 29.4; inactive.
FARSA #1 gave G2 robust z-score 0.0675; G2 cells, % of GMNN control 3.44; inactive.
Knock-down of FARSA #2 resulted in: G2 robust z-score -1.05; G2 cells, % of GMNN control -4.45; inactive.
Knock-down of FARSA #3 gave: G2 robust z-score -0.987; G2 cells, % of GMNN control -3.98; inactive.

2 entries from above in another layout:
| target | siRNA no. | G2 robust z-score | G2 cells, % of GMNN control | Call |
| --- | --- | --- | --- | --- |
| CFAP97 | 2 | 1.32 | 12.3 | inactive |
| CFAP97 | 3 | 3.76 | 29.4 | inactive |

Continued.
GALNT2 #1 gave G2 robust z-score -0.0165; G2 cells, % of GMNN control 2.85; inactive.
Silencing of GALNT2 #2 came out at: G2 robust z-score 2.38; G2 cells, % of GMNN control 19.7; inactive.
GALNT2 #3 scored G2 robust z-score -0.0636; G2 cells, % of GMNN control 2.52; inactive.
With knock-down of FGD5 #1, the record shows G2 robust z-score -0.168; G2 cells, % of GMNN control 1.78; inactive.
For FGD5 #2, the values are G2 robust z-score -0.752; G2 cells, % of GMNN control -2.33; inactive.
FGD5 #3 showed G2 robust z-score 7.13; G2 cells, % of GMNN control 53.1; active.
